Literature values in US20230349886A1, “SYSTEMS AND METHODS FOR PREDICTING CARDIOTOXICITY OF MOLECULAR PARAMETERS OF A COMPOUND BASED ON MACHINE LEARNING ALGORITHMS” (UTI Limited Partnership, priority 2015, published 2023).

Chains of the proteins cited; added tags and fusions are not shown. Residues count along the entry.
UniProt Q13936, 1-2138 isoform Q13936-12: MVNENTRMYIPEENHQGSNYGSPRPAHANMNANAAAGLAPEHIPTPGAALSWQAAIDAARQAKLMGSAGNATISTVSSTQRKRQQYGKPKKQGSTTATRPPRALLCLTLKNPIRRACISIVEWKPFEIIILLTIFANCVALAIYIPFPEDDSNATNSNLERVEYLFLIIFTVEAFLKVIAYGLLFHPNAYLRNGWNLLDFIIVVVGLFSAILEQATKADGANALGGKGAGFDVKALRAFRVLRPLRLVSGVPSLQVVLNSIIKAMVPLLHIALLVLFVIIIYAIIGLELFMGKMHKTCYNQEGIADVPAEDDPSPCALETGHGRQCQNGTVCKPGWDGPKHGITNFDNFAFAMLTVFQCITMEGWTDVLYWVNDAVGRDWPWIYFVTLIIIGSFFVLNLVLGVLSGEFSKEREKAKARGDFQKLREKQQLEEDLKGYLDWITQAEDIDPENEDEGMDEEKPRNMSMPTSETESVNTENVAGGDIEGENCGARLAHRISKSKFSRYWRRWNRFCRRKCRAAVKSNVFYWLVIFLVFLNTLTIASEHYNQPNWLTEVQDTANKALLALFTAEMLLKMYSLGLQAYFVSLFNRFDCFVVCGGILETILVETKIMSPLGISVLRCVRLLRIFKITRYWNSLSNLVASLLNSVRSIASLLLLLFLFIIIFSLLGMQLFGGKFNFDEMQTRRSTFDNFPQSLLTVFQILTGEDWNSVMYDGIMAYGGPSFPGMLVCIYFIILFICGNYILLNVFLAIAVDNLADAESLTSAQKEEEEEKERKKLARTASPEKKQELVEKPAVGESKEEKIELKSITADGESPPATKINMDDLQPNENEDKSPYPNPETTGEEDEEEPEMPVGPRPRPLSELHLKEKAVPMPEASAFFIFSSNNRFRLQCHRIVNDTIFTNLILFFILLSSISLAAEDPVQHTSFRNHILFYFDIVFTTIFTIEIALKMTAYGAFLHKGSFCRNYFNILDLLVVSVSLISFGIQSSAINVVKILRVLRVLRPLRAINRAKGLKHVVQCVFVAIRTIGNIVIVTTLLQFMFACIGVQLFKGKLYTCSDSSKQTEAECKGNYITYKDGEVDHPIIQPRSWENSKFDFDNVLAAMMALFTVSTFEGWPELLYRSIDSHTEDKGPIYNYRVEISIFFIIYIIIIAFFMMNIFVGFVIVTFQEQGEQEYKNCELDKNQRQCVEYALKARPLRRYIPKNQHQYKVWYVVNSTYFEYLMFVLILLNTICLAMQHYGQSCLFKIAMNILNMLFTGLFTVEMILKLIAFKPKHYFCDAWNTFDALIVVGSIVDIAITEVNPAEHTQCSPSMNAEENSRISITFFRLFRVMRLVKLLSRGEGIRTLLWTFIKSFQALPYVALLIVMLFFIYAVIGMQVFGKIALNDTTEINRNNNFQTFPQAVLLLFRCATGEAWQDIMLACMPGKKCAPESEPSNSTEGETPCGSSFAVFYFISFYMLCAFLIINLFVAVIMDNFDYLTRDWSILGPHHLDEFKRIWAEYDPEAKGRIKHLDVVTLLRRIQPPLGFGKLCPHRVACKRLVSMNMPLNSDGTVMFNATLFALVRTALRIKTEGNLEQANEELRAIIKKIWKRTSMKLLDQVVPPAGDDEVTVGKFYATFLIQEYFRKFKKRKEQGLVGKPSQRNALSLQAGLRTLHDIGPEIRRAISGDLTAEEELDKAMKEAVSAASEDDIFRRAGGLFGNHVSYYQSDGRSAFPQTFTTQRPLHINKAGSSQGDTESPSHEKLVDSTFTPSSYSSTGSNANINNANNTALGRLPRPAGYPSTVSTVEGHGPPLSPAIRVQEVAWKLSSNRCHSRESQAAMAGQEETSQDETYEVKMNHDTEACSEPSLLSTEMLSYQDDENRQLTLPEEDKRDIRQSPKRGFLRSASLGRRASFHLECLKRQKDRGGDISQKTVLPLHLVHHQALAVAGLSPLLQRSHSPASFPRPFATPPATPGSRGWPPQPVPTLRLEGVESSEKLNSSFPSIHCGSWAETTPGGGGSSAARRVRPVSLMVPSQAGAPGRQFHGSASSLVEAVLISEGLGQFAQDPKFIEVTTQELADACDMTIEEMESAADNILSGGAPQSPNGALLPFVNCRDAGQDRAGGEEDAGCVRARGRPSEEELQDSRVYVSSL
UniProt Q14524, 1-2016 isoform Q14524-4 V215L/S234P: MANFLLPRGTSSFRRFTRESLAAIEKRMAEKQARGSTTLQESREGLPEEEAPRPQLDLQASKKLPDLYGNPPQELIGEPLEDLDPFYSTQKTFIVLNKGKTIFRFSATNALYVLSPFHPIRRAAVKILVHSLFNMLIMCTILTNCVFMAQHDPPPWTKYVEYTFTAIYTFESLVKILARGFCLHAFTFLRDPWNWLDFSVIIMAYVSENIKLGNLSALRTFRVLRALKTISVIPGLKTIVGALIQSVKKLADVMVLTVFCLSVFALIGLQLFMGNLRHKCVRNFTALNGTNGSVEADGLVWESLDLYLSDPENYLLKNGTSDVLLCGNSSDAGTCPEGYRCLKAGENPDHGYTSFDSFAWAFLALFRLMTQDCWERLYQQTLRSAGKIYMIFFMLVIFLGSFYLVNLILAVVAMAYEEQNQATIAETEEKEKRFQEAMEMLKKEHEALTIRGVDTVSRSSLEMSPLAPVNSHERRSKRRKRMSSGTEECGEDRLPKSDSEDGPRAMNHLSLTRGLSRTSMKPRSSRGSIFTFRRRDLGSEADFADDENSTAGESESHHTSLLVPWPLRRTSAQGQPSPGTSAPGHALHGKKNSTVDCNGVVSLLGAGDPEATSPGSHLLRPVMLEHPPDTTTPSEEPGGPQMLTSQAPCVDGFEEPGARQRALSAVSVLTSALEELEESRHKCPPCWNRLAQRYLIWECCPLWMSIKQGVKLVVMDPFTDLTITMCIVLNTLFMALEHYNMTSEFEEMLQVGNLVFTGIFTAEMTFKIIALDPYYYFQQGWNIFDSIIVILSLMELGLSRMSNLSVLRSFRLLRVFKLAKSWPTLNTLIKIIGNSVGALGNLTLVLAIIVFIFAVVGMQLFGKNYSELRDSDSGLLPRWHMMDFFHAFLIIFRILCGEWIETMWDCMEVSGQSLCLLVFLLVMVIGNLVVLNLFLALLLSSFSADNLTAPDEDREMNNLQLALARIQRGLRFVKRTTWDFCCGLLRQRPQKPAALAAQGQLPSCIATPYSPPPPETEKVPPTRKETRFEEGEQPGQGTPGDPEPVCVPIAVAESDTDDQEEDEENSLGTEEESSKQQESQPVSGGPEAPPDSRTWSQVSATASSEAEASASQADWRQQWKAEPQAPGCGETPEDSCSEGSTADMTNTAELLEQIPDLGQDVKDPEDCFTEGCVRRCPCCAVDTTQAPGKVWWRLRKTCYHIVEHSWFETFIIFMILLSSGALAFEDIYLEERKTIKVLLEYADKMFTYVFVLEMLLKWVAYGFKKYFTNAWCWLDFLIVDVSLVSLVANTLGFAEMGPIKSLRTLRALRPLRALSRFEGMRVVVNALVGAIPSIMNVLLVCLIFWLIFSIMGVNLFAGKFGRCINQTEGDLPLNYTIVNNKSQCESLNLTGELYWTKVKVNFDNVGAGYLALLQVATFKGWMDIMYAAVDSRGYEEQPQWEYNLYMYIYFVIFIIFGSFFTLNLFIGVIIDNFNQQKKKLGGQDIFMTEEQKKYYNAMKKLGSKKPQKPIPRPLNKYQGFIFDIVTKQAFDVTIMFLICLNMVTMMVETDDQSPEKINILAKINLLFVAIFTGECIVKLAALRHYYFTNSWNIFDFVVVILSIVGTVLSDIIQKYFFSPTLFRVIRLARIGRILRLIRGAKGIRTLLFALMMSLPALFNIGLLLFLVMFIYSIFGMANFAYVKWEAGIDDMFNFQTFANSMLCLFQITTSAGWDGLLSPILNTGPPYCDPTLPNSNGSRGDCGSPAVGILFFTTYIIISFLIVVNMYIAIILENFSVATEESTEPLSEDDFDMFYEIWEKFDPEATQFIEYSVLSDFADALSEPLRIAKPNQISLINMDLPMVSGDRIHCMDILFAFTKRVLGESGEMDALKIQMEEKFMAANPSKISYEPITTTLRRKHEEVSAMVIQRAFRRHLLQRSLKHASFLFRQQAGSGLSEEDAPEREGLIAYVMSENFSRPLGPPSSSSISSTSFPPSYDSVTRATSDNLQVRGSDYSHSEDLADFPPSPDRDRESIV

Key:
Cav1.2 = Cav1.2 (Homo sapiens, UniProt Q13936); settings: Brown dataset; on CAV1.2 max inhib: test concentration or dose not given here
Nav1.5 = Nav1.5 (Homo sapiens, UniProt Q14524); further: test concentration or dose not given here

Row | SMILES | CAV1.2 max inhib (Cav1.2) | IC50 (Cav1.2; read-out: CAV1.2 IC50) | NAV1.5 max inhib (Nav1.5)
1 | COc1cc2c(cc1OC)C(=O)C(CC1CCN(Cc3ccccc3)CC1)C2 (centres unmarked) [donepezil] | 55.7 | 34.3 µM | 48.9
2 | COC(=O)C1=C(C)NC(C)=C(C(=O)OC)C1c1ccccc1[N+](=O)[O-] [nifedipine] | 88.3 |  | 54.1
